Results are given in words; binding and its absence hold for the method and conditions named. In cells and extracts the contact can be indirect. Some binding calls cover weakened binding; strength is not graded here.
Target: Ubiquitin C-terminal hydrolase L1 (mouse (endogenous in cardiac fibroblasts of C57BL/6 mice)) (UniProt Q9R0P9)
Assay: co-IP; lysate of CFs stimulated with TGF-β1; rabbit UCHL1 antibody, rabbit GRP78 antibody or rabbit isotype control IgG overnight at 4 °C, protein A/G magnetic beads 4 h at 4 °C, washed three times with lysis buffer, western blot

Protein sequences, listed by entry. Tags and fused reporters are not part of them. Residues count along the entry.
UniProt Q9R0P9: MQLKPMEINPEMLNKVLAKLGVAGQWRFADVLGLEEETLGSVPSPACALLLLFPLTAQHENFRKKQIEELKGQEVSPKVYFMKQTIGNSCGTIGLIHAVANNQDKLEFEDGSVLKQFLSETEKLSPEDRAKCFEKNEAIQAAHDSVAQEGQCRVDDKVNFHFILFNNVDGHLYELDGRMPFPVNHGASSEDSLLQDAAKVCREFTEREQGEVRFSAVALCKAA
UniProt P20029, residues 20-655: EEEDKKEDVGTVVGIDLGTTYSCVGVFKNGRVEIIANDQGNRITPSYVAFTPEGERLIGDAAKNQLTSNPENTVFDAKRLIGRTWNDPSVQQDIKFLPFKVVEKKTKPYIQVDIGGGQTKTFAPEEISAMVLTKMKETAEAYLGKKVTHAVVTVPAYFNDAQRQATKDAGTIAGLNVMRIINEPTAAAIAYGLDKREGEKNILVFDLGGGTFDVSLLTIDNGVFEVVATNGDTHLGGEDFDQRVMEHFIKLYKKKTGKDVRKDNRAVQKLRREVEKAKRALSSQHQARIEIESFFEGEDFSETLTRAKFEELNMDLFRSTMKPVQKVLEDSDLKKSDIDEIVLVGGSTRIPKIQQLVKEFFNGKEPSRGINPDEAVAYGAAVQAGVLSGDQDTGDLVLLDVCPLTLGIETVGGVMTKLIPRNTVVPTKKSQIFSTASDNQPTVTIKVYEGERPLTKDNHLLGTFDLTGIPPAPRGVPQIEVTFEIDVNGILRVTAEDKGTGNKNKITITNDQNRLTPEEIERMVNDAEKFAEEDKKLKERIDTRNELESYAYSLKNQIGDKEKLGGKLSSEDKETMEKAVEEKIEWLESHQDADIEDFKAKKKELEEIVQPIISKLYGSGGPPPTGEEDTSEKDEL

“glucose-regulated protein of 78 kDa (from UniProt P20029 20-655)” was tested, and the binding was “binds”.

From article PMC7326919
